# Measured values published in PubChem BioAssay AID1347423 (Functional Genomics Laboratory (NCATS/FGL), 2020).
# In all, about 52,000 sequences went through this assay and about 210 (0.4%) were called active.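 How the source made its calls: active means gene whose silencing raises cell survival under the drug, median off-target-corrected z-score across its silencing RNAs 2 or more; inactive means the rest.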 The list shows a part of the results.
# Assay: Resistance to Poly (ADP-Ribose) Polymerase inhibitor: Gene Identification via Genome-wide siRNA Screen
# Conditions: mouse BRCA2 R2336H ES cells, olaparib, CellTiter-Glo viability; stronger effect = higher value
# Procedure, shortened: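 Mouse BRCA2 R2336H ES cells were reverse-transfected with siRNA (20 nM final), treated at 48 h with 500 nM olaparib, and read by CellTiter-Glo after 72 h. Scores: MAD-based z per siRNA, median per gene, seed off-target correction.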
row,Sequence,z-score
1,GCCAGCCAUUGUACCAUGATT against Ttc15,inactive: -0.476
2,GGUCCAGAAGAAAUAAACATT against Kcnn1,inactive: 0.222
3,CCACUAAUCGAGUUGGUGCTT against Pigf,inactive: 0.712
4,GGCUUUAAGAACUGGGCCCTT against Mgl1,inactive: 0.22
5,GGACUUUGAAAAAGAUGCATT against Fkbp7,inactive: 0.208
6,GCGGUAUGAUCUAGUAGUGTT against 4930488P06Rik,inactive: -1.98
7,GGCCAAAUGGACAAUCCAUTT against D330014H01Rik,inactive: 0.667
8,GACCAACCCUCACUAAGCUTT against Tcstv3,inactive: -2.63
9,GGUUUUGUAGGAGUCUCUCTT against V1ra9,inactive: 0.161
10,GGCAGCUGCUGACUUGAUGTT against Gng2,inactive: -0.376
11,CCCUUGGUUAUGGAGAAAGTT against Mcoln2,inactive: -0.000713
12,GCAGCAUCGCUAUGUCCUGTT against LOC541307,inactive: 0.152
13,GGCUGGUACUCCAUUUUAGTT against Neil2,inactive: 0.791
14,CCGGCAGACCUGUGACAUUTT against Rgs14,inactive: 1.16
15,GUGAGACCAAGUUACAGGATT against Olfr1504,inactive: 0.548
16,GGCUUUAGCUAGUGCUAGGTT against Marveld1,inactive: -0.951
17,CCCAAAGCUAUCAUAUCAATT against Laf4l,inactive: 0.688
18,GGCCCAUAAUUAAAUGUUUTT against Stac2,inactive: 0.15
19,GCAACCUGCAGGCAGUAACTT against Nolc1,inactive: 0.264
20,GGAAGAUGACCAAGAAGCUTT against Ddx42,inactive: -0.838
21,GGGUAGGAUUGAAAAGUUUTT against Trh,inactive: -0.716
22,GGAAGCAAGUAUCCCGAAUTT against A930034L06Rik,inactive: 1.74
23,CCCUUGCUUGUCGGAAUCUTT against Chchd7,inactive: -0.137
24,GGUGAUCCCAUUGUUUAUUTT against Gm784,inactive: 1.66
25,GGCAUAUCAUUUGUAGGAUTT against Olfr73,inactive: 0.00778
26,CUUUGAGCUUGGAAGUAAATT against bM64F17.1,inactive: 0.0365

row,Sequence,z-score
1,GCCCUUGAACGGAGAAUAGTT against 6720456B07Rik,inactive: -1.56
2,GGAAGACAGUAGGAAGAAATT against Eif2s2,inactive: -1.28
3,CUACAGUGGCAAUAAUAUUTT against Rpl30,inactive: -2.78
4,GGUCAUCCAGCUAUCUGAUTT against 4930572I07Rik,inactive: 0.811
5,GGCUUGAUUGCAUCUUUAUTT against Ebpl,inactive: 2.44
6,GGUCUUAAUUCUGAAGGACTT against Chn1,inactive: -0.304
7,GCAACUACCCUCUAAAGUCTT against Man1b1,inactive: 0.232
8,CCUGAUCCCGGUGUAUCAUTT against Mrpl38,inactive: 2.02
9,GGCCGUUGUUGUAAAUAAATT against Rpo1-1,inactive: -0.492
10,GGAUUCUGUGCUUUCCUGGTT against Pomt2,inactive: 0.579
11,GGACUUGAGAAAAGAUUAUTT against 1300007L22Rik,inactive: 0.362
12,GCACUCAGAACAACUAAAATT against 9030617O03Rik,inactive: 0.981
13,CGCGGAGUUUCGAAGUGUCTT against Drd4,inactive: 0.109
14,GGUUUUUACAUCAUCUUGATT against Epb7.2,inactive: 2.52
15,CCUUGAAUCGGCCCUGAAATT against 1110020C03Rik,inactive: 0.801
16,GGAUGAACCACCACAAUUGTT against Olfr1233,inactive: -2.5
17,GGAUAAGGCCAUCAAGAAGTT against Rps26,inactive: -3.23
18,GGCACUUGCUCAUUCAUUCTT against AU021107,inactive: -0.235
19,GGGAGAAGAUAUGUUUUUATT against Sc5d,inactive: -0.619
20,GCUAAGAAUAGGAGUUAGATT against Esrrbl1,inactive: -0.29
21,GGAGAAGCUAAGUAACUUCTT against 2410018M14Rik,inactive: -0.456
22,GGAACAGAGACGAUACUCUTT against Fmr1nb,inactive: -0.154
23,GGUCUCCUAUAGCACACAGTT against Itgb4,inactive: -1.49
24,GGAGAAAAAAUUCUUAUCCTT against Hrmt1l1,inactive: 0.53
25,GGUCACCAAACAGCACGUGTT against Ctag3,inactive: 0.92
26,GGAGCUCUCGAAGGAUUGUTT against Eda2r,inactive: -1.73

# Part of the list above in another layout:
row	Sequence	z-score
14	CCGGCAGACCUGUGACAUUTT against Rgs14	inactive: 1.16
15	GUGAGACCAAGUUACAGGATT against Olfr1504	inactive: 0.548
16	GGCUUUAGCUAGUGCUAGGTT against Marveld1	inactive: -0.951
17	CCCAAAGCUAUCAUAUCAATT against Laf4l	inactive: 0.688
18	GGCCCAUAAUUAAAUGUUUTT against Stac2	inactive: 0.15
19	GCAACCUGCAGGCAGUAACTT against Nolc1	inactive: 0.264
20	GGAAGAUGACCAAGAAGCUTT against Ddx42	inactive: -0.838
21	GGGUAGGAUUGAAAAGUUUTT against Trh	inactive: -0.716
22	GGAAGCAAGUAUCCCGAAUTT against A930034L06Rik	inactive: 1.74
23	CCCUUGCUUGUCGGAAUCUTT against Chchd7	inactive: -0.137
24	GGUGAUCCCAUUGUUUAUUTT against Gm784	inactive: 1.66
25	GGCAUAUCAUUUGUAGGAUTT against Olfr73	inactive: 0.00778
26	CUUUGAGCUUGGAAGUAAATT against bM64F17.1	inactive: 0.0365
1	GCCCUUGAACGGAGAAUAGTT against 6720456B07Rik	inactive: -1.56
2	GGAAGACAGUAGGAAGAAATT against Eif2s2	inactive: -1.28
3	CUACAGUGGCAAUAAUAUUTT against Rpl30	inactive: -2.78
4	GGUCAUCCAGCUAUCUGAUTT against 4930572I07Rik	inactive: 0.811
5	GGCUUGAUUGCAUCUUUAUTT against Ebpl	inactive: 2.44
6	GGUCUUAAUUCUGAAGGACTT against Chn1	inactive: -0.304
7	GCAACUACCCUCUAAAGUCTT against Man1b1	inactive: 0.232
8	CCUGAUCCCGGUGUAUCAUTT against Mrpl38	inactive: 2.02
9	GGCCGUUGUUGUAAAUAAATT against Rpo1-1	inactive: -0.492
10	GGAUUCUGUGCUUUCCUGGTT against Pomt2	inactive: 0.579
11	GGACUUGAGAAAAGAUUAUTT against 1300007L22Rik	inactive: 0.362
12	GCACUCAGAACAACUAAAATT against 9030617O03Rik	inactive: 0.981
13	CGCGGAGUUUCGAAGUGUCTT against Drd4	inactive: 0.109
14	GGUUUUUACAUCAUCUUGATT against Epb7.2	inactive: 2.52
15	CCUUGAAUCGGCCCUGAAATT against 1110020C03Rik	inactive: 0.801
16	GGAUGAACCACCACAAUUGTT against Olfr1233	inactive: -2.5

# Next results:

row,Sequence,z-score
1,GGACAAGUACGGAAAGCCCTT against Hdgfrp2,inactive: 0.0224
2,GGACAUGAACCUCUUCAAATT against Fads2,inactive: 0.824
3,GCUAUGUGAAAGGAACCGATT against Prim2,inactive: -0.757
4,CCAACUUCAUAAGAUGUACTT against Commd3,inactive: -0.17
5,CCUGUGUGUGAAUCUCGUUTT against C1qb,inactive: -1.49
6,GGAGAUAAAAAUCCAAGCATT against A030009B12Rik,inactive: 0.56
7,CGAGAGUGUGCCAAUAUUGTT against Tyrp1,inactive: -1.37
8,UACUCGUAUUCUUAAUUGCTT against Acsl1,inactive: -0.319
9,GGUGGAACAAGAAGAGUCCTT against Zfp307,inactive: -0.0578
10,GGUAGAGAAGAACGGUACCTT against A430031N04,inactive: 0.512
11,GCACCAUGUUCAUCUUUACTT against Tas2r144,inactive: -0.697
12,GGAAGAAAUGAGAAGGAUATT against Igsf4b,inactive: 0.635
13,GGAUGCUUUAACUUCAAACTT against A930001N09Rik,inactive: 0.819
14,GGGCCCUUGACCUACCAUUTT against D830044D21Rik,inactive: -0.706
15,GCUCGGUUAAGAGCCCAUGTT against Pabpnl1,inactive: 2.1
16,CCAUACUGGCAUACCUUGCTT against Mrgprb8,inactive: -0.973
17,GGUUGCCUCUUAAAUGUUGTT against Nyx,inactive: 1.07
18,GGACCUAUACAAGGGAGGUTT against Il1f10,inactive: 0.177
19,GCCGAUCAGAUGUAAUUCUTT against 6030411F23Rik,inactive: -1.21
20,GGAGACAGGUGCUACAACUTT against Lin28,inactive: -0.362
21,CGGCACUAAACUUCGUGAGTT against 1700084P21Rik,inactive: -0.031
22,GGCUAUCCUGGAAAAAGAGTT against C330005L02Rik,inactive: -0.73
23,GGUUCUGAUAGCUCAAGAGTT against Polr2b,inactive: -2.41
24,CGACACAUAUGCUAGCUUGTT against Slc7a5,inactive: 0.659
25,CCAAUGUAAGACACGAUGUTT against Gpr151,inactive: 1.5
26,GGCUAAAAGUAGUGAAUGATT against Ccr2,inactive: -0.373

row,Sequence,z-score
1,GCAUUUCGACGCGGCUUUUTT against Snapc1,inactive: -2.45
2,GGAGUACAAAGAAAGGAACTT against 2610033H07Rik,inactive: -1.03
3,GGUACUAUGAAGACUUAGATT against MGC37347,inactive: -1.2
4,GCUCAGACCGUGAUUGUAUTT against 1620401E04Rik,inactive: 0.961
5,GGUACCUUAUGUUUACAAUTT against A430010J10Rik,inactive: -0.25
6,GGAACUAAAUCUUCCAUCCTT against Chit1,inactive: -0.42
7,GGUGCCUUCUGUAAACGAGTT against Foxc2,inactive: 1.1
8,GGAGAAAAACAUCUAAGUGTT against 1810030N24Rik,inactive: 1.14
9,CCCUUCUAUUUGAACAUAUTT against A530032D15Rik,inactive: -1.99
10,GGUAAAGGUGUAUUCGGGUTT against Ifngr1,inactive: 2.76
11,GGCAUCCAUGAAAAACUCUTT against Aqp9,inactive: -0.504
12,GCUGCUGAUAACAUCCGACTT against Golga5,inactive: 0.845
13,GGAUAUCACAUAGCAUCGGTT against 1700025G04Rik,inactive: -0.0114
14,GGUGAGCGUGUAGAGAUGCTT against Fbxo45,inactive: 0.147
15,GGAGUAGCAGAGCUUCUGGTT against S100a8,inactive: 1.36
16,GGCCUUGCGUCUCAACCUUTT against 1810029B16Rik,inactive: -1.86
17,GCCAAUGGGUUGGUAAGAUTT against C030019I05Rik,inactive: -1.58
18,CCAGCUCUGGUUUAUUGAATT against Neurog2,inactive: 0.341
19,GGAAGAAAAAUAUGCUUUCTT against Pls3,inactive: -0.75
20,GGCUUUGCUCCUGAUAAACTT against Vnn3,inactive: 0.135
21,GGAAACCUGGCAUAACUUUTT against Pax9,inactive: 1.09
22,GGUACCAGGGAGUGACAUUTT against Itgae,inactive: -1.47
23,GGCCAUCGAGGUGAUGUACTT against Tpst2,inactive: -2.43
24,CCAACACCCAAUAAUAGCGTT against 6.33E+19,inactive: -0.777
25,GCUCAAUUCGGACAACAAGTT against Smad7,inactive: 2.18
26,GGGUCAUGUAUAGUUUGUGTT against Dnajc8,inactive: -1.51
